Some of these results come from one statement about several compounds together.
Assays:
Format in all cases: in vivo
[1] = tested on: fall armyworm (Spodoptera frugiperda (J. E. Smith)); assay: Test B: control of fall armyworm, foliar spray on corn (maize) plant; details: sprayed at 50 ppm, assessed after 6 days, value is the feeding damage limit
[2] = tested on: diamondback moth (Plutella xylostella (L.)); assay: Test A: control of diamondback moth, foliar spray on mustard plant; details: sprayed at 50 ppm, assessed after 6 days, value is the feeding damage limit
[3] = tested on: Western Flower Thrips (Frankliniellla occidentalis (Pergande)); assay: Test H: control of Western Flower Thrips through contact and/or systemic means; details: assessed after 6 days, value is the plant damage limit

Structure (SMILES)	control efficacy (40% or less feeding damage and/or 100% mortality) [1]	control efficacy (40% or less feeding damage and/or 100% mortality) [2]	control efficacy (30% or less plant damage and/or 100% mortality) ([3]; sprayed at 250 ppm)	control efficacy (30% or less plant damage and/or 100% mortality) ([3]; sprayed at 50 ppm)
O=C(NCc1cc(NC(=O)C2C(c3ccc(F)c(C(F)(F)F)c3)C2(Cl)Cl)ccc1F)C1CC1 (stereo not drawn) [Compound 77, 2,2-dichloro-N-[3-[[(cyclopropylcarbonyl)amino]methyl]-4-fluorophenyl]-3-[4-fluoro-3-(trifluoromethyl)phenyl]cyclopropanecarboxamide]	≤ 40%	≤ 40%	≤ 30%	
O=C(CC(F)(F)F)NCc1cc(NC(=O)C2C(c3ccc(F)c(C(F)(F)F)c3)C2(Cl)Cl)ccc1F (stereo not drawn) [Compound 78, 2,2-dichloro-3-[4-fluoro-3-(trifuoromethyl)phenyl]-N-[4-fluoro-3-[[(3,3,3-trifluoro-1-oxopropyl)amino]methyl]phenyl]cyclopropanecarboxamide]	≤ 40%	≤ 40%	≤ 30%	
O=C(CC(F)(F)F)NCc1cc(NC(=O)C2C(c3ccc(F)c(C(F)(F)F)c3)C2(Cl)Cl)ccc1Cl (stereo not drawn) [Compound 116, 2,2-dichloro-N-[4-chloro-3-[[(3,3,3-trifluoro-1-oxopropyl)amino]methyl]phenyl]-3-[4-fluoro-3-(trifluoromethyl)phenyl]cyclopropanecarboxamide]	≤ 40%	≤ 40%	≤ 30%	≤ 30%
O=C(CC(F)(F)F)NCc1cc(NC(=O)C2C(c3cc(F)c(F)c(F)c3)C2(Cl)Cl)ccc1Cl (stereo not drawn) [Compound 118, 2,2-dichloro-N-[4-chloro-3-[[(3,3,3-trifluoro-1-oxopropyl)amino]methyl]phenyl]-3-(3,4,5-trifluorophenyl)cyclopropanecarboxamide]	≤ 40%	≤ 40%	≤ 30%	≤ 30%
O=C(CC(F)(F)F)NCc1cc(NC(=O)C2C(c3cc(F)cc(Cl)c3)C2(Cl)Cl)ccc1F (stereo not drawn) [Compound 129, 2,2-dichloro-3-(3-chloro-5-fluorophenyl)-N-[4-fluoro-3-[[(3,3,3-trifluoro-1-oxopropyl)amino]methyl]phenyl]cyclopropanecarboxamide]	≤ 40%	≤ 40%	≤ 30%	≤ 30%
O=C(Nc1ccc(Cl)c(CNC(=O)C(F)(F)F)c1)C1C(c2ccc(F)c(C(F)(F)F)c2)C1(Cl)Cl (stereo not drawn) [Compound 174, 2,2-dichloro-N-[4-chloro-3-[[(2,2,2-trifluoroacetyl)amino]methyl]phenyl]-3-[4-fluoro-3-(trifluoromethyl)phenyl]cyclopropanecarboxamide]	≤ 40%	≤ 40%	≤ 30%	
O=C(Nc1ccc(Cl)c(CNC(=O)C(F)(F)F)c1)C1C(c2ccc(Cl)c(Cl)c2)C1(Cl)Cl (stereo not drawn) [Compound 175, 2,2-dichloro-N-[4-chloro-3-[[(2,2,2-trifluoroacetyl)amino]methyl]phenyl]-3-(3,4-dichlorophenyl)cyclopropanecarboxamide]	≤ 40%	≤ 40%	≤ 30%	

From US20210400977A1, “META-DIAMIDE COMPOUNDS FOR CONTROLLING INVERTEBRATE PESTS” (FMC Corporation, priority 2018, published 2021)
